In publication PMC5345265:
These are yes or no findings as the source states them, for the method shown. In cells and extracts the contact can be indirect. Some binding calls cover weakened binding; strength is not graded here. Sequences can lack the tags named with a protein.

T1: Flag-tagged TSPAN6 (UniProt O43657)
T1 sequence: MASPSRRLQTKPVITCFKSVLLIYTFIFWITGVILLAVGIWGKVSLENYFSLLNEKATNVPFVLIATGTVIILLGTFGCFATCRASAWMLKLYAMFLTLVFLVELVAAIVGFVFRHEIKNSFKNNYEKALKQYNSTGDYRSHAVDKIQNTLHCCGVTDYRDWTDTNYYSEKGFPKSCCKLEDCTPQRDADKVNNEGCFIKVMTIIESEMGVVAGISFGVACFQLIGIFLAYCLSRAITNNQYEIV


How the values were obtained:
Flag-tagged TSPAN6 = molecular target: T1, Flag-tagged TSPAN6; assay: co-IP; HEK293 cells co-transfected with Flag-TSPAN6 and HA-tagged syntenin constructs; Flag-TSPAN6 immunoprecipitated with anti-Flag antibody, western blot with anti-HA antibody
Flag-tagged syntenin = Flag-tagged syntenin (UniProt O00560); assay: co-IP; HEK293 cells co-expressing Flag-tagged syntenin and myc-tagged TSPAN6 wt or mutants; Flag-tagged syntenin immunoprecipitated, western blot with anti-myc antibody

| binding (Flag-tagged TSPAN6) | binding (Flag-tagged syntenin) | Molecule |
| --- | --- | --- |
| no binding | – | HA-tagged syntenin lacking the last 17 C-terminal amino acids (from UniProt O00560 1-281) (domain or fragment) |
| binds | – | HA-tagged wt syntenin (from UniProt O00560 1-298) |
| – | binds | myc-tagged TSPAN6 wild type (tetraspanin-6) (protein, UniProt O43657 1-245) MASPSRRLQTKPVITCFKSVLLIYTFIFWITGVILLAVGIWGKVSLENYFSLLNEKATNVPFVLIATGTVIILLGTFGCFATCRASAWMLKLYAMFLTLVFLVELVAAIVGFVFRHEIKNSFKNNYEKALKQYNSTGDYRSHAVDKIQNTLHCCGVTDYRDWTDTNYYSEKGFPKSCCKLEDCTPQRDADKVNNEGCFIKVMTIIESEMGVVAGISFGVACFQLIGIFLAYCLSRAITNNQYEIV |
| binds | – | HA-tagged syntenin lacking the first 101 N-terminal amino acids (domain or fragment, UniProt O00560 102-298) GIRRAEIKQGIREVILCKDQDGKIGLRLKSIDNGIFVQLVQANSPASLVGLRFGDQVLQINGENCAGWSSDKAHKVLKQAFGEKITMTIRDRPFERTITMHKDSTGHVGFIFKNGKITSIVKDSSAARNGLLTEHNICEINGQNVIGLKDSQIADILSTSGTVVTITIMPAFIFEHIIKRMAPSIMKSLMDHTIPEV |
